The whole screen tested about 53,000 sequences, of which about 3,700 (7%) were called active.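 How the source made its calls: active means gene knockdowns whose robust z-score for IL-1 alpha signal is at least 2 or at most -2, so actives lie on both sides; inactive means the rest.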 The list shows a part of the results.

The nature of the experiment: Components of the Cytosolic LPS Sensing Pathway: Gene Identification via Genome-wide siRNA Screen.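 Further: robust z of the log signal after scaling to non-targeting control siRNA wells of the plate.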 The following applies: RAW264.7 macrophages, IL-1a HTRF, actives lie on both sides, screened at 100 nM (by protocol), cells primed 5 h with Pam3CSK4 first. Summed up:
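Read-out: IL-1a HTRF on supernatant, divided by plate negative-control median ×100, log-transformed and converted to robust z-score. Cells were RAW264.7 given 100 nM siRNA, Pam3CSK4-primed 5 hours, then LipidA-transfected 24 hour.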
(In general: TR-FRET usually uses a lanthanide donor and a delayed reading to cut background.)
GCCUAUUUCCGUGAACCCGTT against Mgmt: the z-score was inactive: -1.04.

With GGUGGCUAUGGAAACUACCTT against Thrap3, the z-score is inactive: 1.67.

Consider GGAGGAAUUUCAGUUUCUGTT against Pml, for which the z-score is inactive: 0.242.

Turning to GGUCCGAUUCAAAUACCCATT against Ppp6r2, the z-score is inactive: -0.236.

Take CGCGCUGAUAUUAACGGUGTT against Olfr70: the z-score is inactive: 0.115.

GGCCCAGAACAAGAUCAAGTT against Ldb3: the z-score was inactive: 0.844.

As for GAUGCUAACCAACCUUGGATT against Olfr134, the z-score was inactive: 0.67.

In the case of GCUGUUGGUGGAAUGGAAGTT against Slc5a11, the z-score was inactive: -0.262.

Regarding GGCAUAGGCAUUUUCAAAATT against Gucy2f, the z-score was inactive: 1.22.

As to GGUUAAAAAUAAUGUGGGCTT against Sval2, the z-score was inactive: -0.195.

In the case of GCUUACAAGUUGCUACUGGTT against Dnajc8, the z-score was inactive: 0.425.

Consider GGAAAUGACGACUACCAAGTT against Tspyl4, for which the z-score was active: 2.74.

Turning to GGGAGUGAAGUUUCACAGATT against Slamf6, the z-score was inactive: -0.791.

With GGGCAUGCAGAUAAAAUAATT against Akr1b8, the z-score was inactive: -0.258.

As to CCAACUUCCAAGCUUAAAATT against Ucp3, the z-score was inactive: 0.652.

On to GCAGGAUGUGACAGAUACATT against Pdcd2, for which the z-score was inactive: 0.185.

As for GGUUGCUGUUGAUGUCAGCTT against Mlh3, the z-score is inactive: -1.94.

As to GGACGGACAAAUUGAUGCUTT against Sri, the z-score is inactive: -1.28.

Turning to GGACCUGUGGAACCAUUCCTT against Nrros, the z-score is inactive: -0.897.

In the case of GGGUUUAGCCAUCUGUUUCTT against Stap2, the z-score is inactive: -0.0941.

With GGAACUUAAUGACUCUGUGTT against Fv1, the z-score is inactive: -0.735.

For the sequence GGUCUUUAUCUACCAUGGGTT against Itga7, the z-score was inactive: -1.29.

In the case of GGAAGAUAUUCACAGGGUATT against Wnt9b, the z-score is inactive: -0.455.

Take GCAUUUCCUGUGGUCUAUGTT against Itlnb: the z-score was inactive: -0.838.

On to GCCGUGUUCAUGAAUAAACTT against Glce, for which the z-score was inactive: -0.392.

For the sequence GAACAGUCCUUUUAUGGAUTT against Vmn1r33, the z-score is inactive: 0.38.

GGAGGAUGCUGCCUAUGACTT against B4galt2: the z-score is inactive: -0.592.

Consider CCUGCAUUAUUUAUGAAAGTT against Mfap3l, for which the z-score was inactive: -0.449.

As to GGUGGAAUACUUGGAGCAGTT against Gstm4, the z-score was active: 2.98.

CCCAAGCUCGGCUAUCGUATT against E2f8: the z-score was inactive: -0.00648.

Turning to GGUGGAUAAAACCAAAAUGTT against Orc6, the z-score is inactive: 0.586.

With GGAUUUACUGUGGUAUGGGTT against Slc16a13, the z-score is inactive: -1.77.

As for GGAAACCUGUUUGAUUUUGTT against Aasdhppt, the z-score was inactive: 0.798.

As for GGACCAUUUUCUAACAGACTT against Slc12a9, the z-score is inactive: 0.0659.

As to CCGAUCUUUCCCUUAUCUUTT against Vamp2, the z-score was inactive: 0.127.

GGUAAUGCCCUAUACUUCATT against Sgcd: the z-score was inactive: 0.684.

As for GCUUCAGGAAGAGUUGCAGTT against Asb7, the z-score is inactive: -0.997.

For GGGUAAUUAUUGUUUUCUGTT against Eif4e3, the z-score is active: 2.19.

As to GCACAAAUGGCACUAUUGATT against R3hcc1l, the z-score was inactive: -0.532.

In the case of GCCGGGUUCGAGAGUUAAGTT against Ptpn11, the z-score was inactive: 1.06.

Turning to GGGCUUUAUAAGACAGUCUTT against Zfp786, the z-score was inactive: -0.11.

Turning to GGAAAACUACUGGAACUGGTT against Irgm1, the z-score is inactive: 0.415.

Consider CGAUUGCUUUUCGAGACUGTT against Olfr1404, for which the z-score is inactive: -1.73.

In the case of GGAUCAGCAUGUUUGGAUUTT against Olfr653, the z-score was inactive: 0.314.

On to CAUAGAGUGCCUGAUUUUATT against Olfr237, for which the z-score was inactive: -0.497.

On to CCUAUGAUUCCAAAAAGGUTT against Eogt, for which the z-score was inactive: -1.19.

For GGGAGUGUUAAAGAGAGUGTT against Ncmap, the z-score was inactive: 0.0787.

Take GGAGUUUGUCUUCUCUUUCTT against Foxf1: the z-score is inactive: 0.0377.

For GGAGGAGACUCAGCAGAUUTT against Gzmn, the z-score was active: 2.29.

In the case of GGGAGAUGAACCUCUCAGATT against Pbld1, the z-score was inactive: 0.124.

On to CCAGGUUCUAUCUACCUACTT against Igfn1, for which the z-score is inactive: -1.81.

GGAGGGAAAUGUUUUAUGUTT against N4bp1: the z-score was inactive: 0.968.

In the case of GGAGAAUUAGCCAACACAGTT against Ywhah, the z-score is inactive: -1.

As to GGGUUACUUAUUAUAUCGATT against Mycbp2, the z-score is inactive: 0.888.

On to GGAUUUCAAGCAAGAUUACTT against Mfn1, for which the z-score was inactive: -0.191.

For GGAGGAACCUCAGAAACAGTT against Knstrn, the z-score is active: -2.19.

On to GCCACACAGAUACCAGAUATT against Mettl27, for which the z-score was inactive: 1.59.

In the case of GGAUGGAUCUUCUUGAUUATT against Tyw3, the z-score was inactive: -0.0584.

On to GGAACUCCUCAAACGAAGGTT against Bmp3, for which the z-score is inactive: 0.553.

Turning to GGCUCUUUCACACCUGGUATT against Scgb3a2, the z-score is inactive: 0.545.

Turning to GGCAAACAUGAAUCUUACCTT against Cyth4, the z-score was inactive: -0.375.

As to GCUCAGAGCAUGUUGGUGGTT against Dstyk, the z-score is inactive: -0.805.

With GGUAAAGAUAAUUGACAACTT against Prss29, the z-score was inactive: -1.11.

As for GCUAAAAGGUAAGUACUUCTT against Lncpint, the z-score was inactive: 0.981.

“GGAACUCGAGUUUAUCCAUTT against 1700020N01Rik”: the z-score was inactive: 0.813.

Turning to GGCCAUCUCUUUUAUUGUATT against Alg13, the z-score is inactive: -0.547.

For the sequence GCUGUCCCGAGCUGAACAATT against Nell2, the z-score is inactive: 0.286.

On to GGGAUACAAUGUAACAUACTT against L1cam, for which the z-score is inactive: -0.0915.

For the sequence “GCAUUCGAAGCUCUUCUAATT against 4930474M22Rik”, the z-score is inactive: -1.89.

Regarding GGGAGGAUACCUUCUAUGUTT against Atf6b, the z-score is inactive: -0.43.

With GCACUUUAAAAGAAUCACUTT against Slc2a12, the z-score is active: 2.11.

For GGACAAACAAGUGAAAUACTT against Morf4l1, the z-score is inactive: 0.209.

For GCUGUGUUCUAACUAACUATT against Aldh9a1, the z-score was inactive: 0.039.

Turning to GAACUACCUGUGUAAACCUTT against Unc119b, the z-score is inactive: 0.356.

Regarding CCUGAGAUUGGCAAUAUAGTT against Mettl14, the z-score was inactive: 0.683.

As to GGGAAUGCUCCAAACGACATT against Bsg, the z-score was inactive: 1.04.

Take GGAUACCUAUAGAAAAUGUTT against Creld2: the z-score was inactive: -1.29.

As to GAUUUAGCUUGGUGAACCGTT against Thoc6, the z-score was inactive: 0.754.

For the sequence GGCACUAGGUGGAGUCAUUTT against Slco1b2, the z-score is inactive: -0.0321.

Turning to CCUGGCAGUAGGUUUGUAATT against Plcd3, the z-score is inactive: 0.235.

In the case of GGUUAAAGGAGCAGUCUAUTT against Dbn1, the z-score was inactive: 0.636.

CCGAGUAAGAAGGACGAUATT against Sh3tc1: the z-score is inactive: -0.984.

Turning to GGGAGAAUUACCAAGAUCUTT against Elac1, the z-score was inactive: -0.0948.

GGCCAUAUUUGUGACUGUGTT against Hao1: the z-score is inactive: -1.58.

Regarding GGUUCUUGUGUUCAGAUGGTT against Mcmdc2, the z-score is inactive: -0.834.

Turning to CCAGAUAAGCCUCAUCAAUTT against Scn5a, the z-score is inactive: -0.163.

In the case of GGAUCUCGAGUCUCAUCUCTT against Ccdc166, the z-score was inactive: 0.851.

With CCCAAAUUGAAAGGGCAGGTT against Serpina3h, the z-score is inactive: -0.822.

For the sequence GGAACAUAUGCUCAGAAGATT against Lce1e, the z-score is inactive: -1.68.

Take GGAAGAAUUCUCAAAGAAUTT against Scyl3: the z-score was inactive: -0.343.

In the case of GACAUACAAUCUCCUACAUTT against Olfr478, the z-score is inactive: 0.818.

Turning to GGCAAUGUACAGAUACUUGTT against Pramel39, the z-score is inactive: 0.798.

GGGAUAUGUGAUUAUUUACTT against Ankle2: the z-score is inactive: -0.564.

As to GGAACUGUGAGACUUUUAGTT against Rabgap1, the z-score was inactive: 0.532.

On to CCACUCCUGUUGAUAAAAATT against Pex7, for which the z-score is inactive: -1.48.

For GCCUAAGGAUGAGUUUCAATT against Uqcr10, the z-score is inactive: 1.01.

For GGUUGUUCCUACAUGUCUUTT against Irf3, the z-score is inactive: -1.28.

Turning to CCUUCAGCUAUCUAACUUCTT against Nepn, the z-score was inactive: -0.0375.

Take GGACAUGGAUGACACUGAUTT against Tsr3: the z-score is inactive: -1.99.

For the sequence CCAACAAGUUGCAUGCCUUTT against Mbl1, the z-score was inactive: 0.259.

On to GGCAAUGAAGGAAACCAAATT against Mpp1, for which the z-score was inactive: -1.1.

As to GGGCAUCCGGCUUUCAGAATT against Chchd3, the z-score is inactive: 0.974.

On to GGGAAUGUGACUACUCCAUTT against Tln2, for which the z-score is inactive: 1.73.

As to GGAUAUUAAAUUCUCAUCCTT against Pus1, the z-score was inactive: -0.573.

Regarding GCCAAAGCUUAAAAAGAAGTT against Gemin5, the z-score was inactive: -1.4.

GGCACUCUCUCAGAAUUUGTT against Rtn4ip1: the z-score was inactive: 0.0411.

As for GGCCCAUAGGUUUCAAAUATT against Ccl22, the z-score was inactive: -0.152.

The values are drawn from PubChem BioAssay AID1508600 (Functional Genomics Laboratory (NCATS/FGL), 2020).
